PubChem BioAssay AID504795 | Drosophila RNAi Screening Center – 2011
Only reagents picked out of a larger screen are listed. 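Every listed dsRNA shows some phenotype; how reagents were selected for listing is not stated.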 Names joined by + are all predicted targets of the reagent.

Screen: 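Genes required for normal axon extension and glial cell shape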 (primary screen)
Cell system: primary Drosophila neurons and glia
Knock-down reagent: long dsRNA against Drosophila genes, 250 ng dsRNA per well
Duration: one week
Measurement: 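Descriptive morphology terms assigned by visual inspection of live automated images of GFP-marked cells, taken one week after adding 250 ng dsRNA per well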

SPR [DRSC21557]: phenotype seen, replicate 1 = axon bundles split apart
betaTub85D [DRSC16910]: phenotype seen, replicate 1 = sheet-like cell extensions
CG1738 [DRSC19772]: phenotype seen, replicate 1 = too many neurite branches
TotE [DRSC21355]: phenotype seen, replicate 1 = reduced axon outgrowth
nmo [DRSC11377]: phenotype seen, replicate 1 = axon bundles split apart
CG4520 [DRSC15590]: phenotype seen, replicate 1 = sheet-like cell extensions
CG33225 [DRSC03881]: phenotype seen, replicate 1 = fewer cells
Bmcp [DRSC10808]: phenotype seen, replicate 1 = axon bundles split apart
CG14341 [DRSC00371]: phenotype seen, replicate 1 = reduced axon outgrowth
Ppi1 [DRSC15421]: phenotype seen, replicate 1 = reduced axon outgrowth
CG4000 [DRSC15535]: phenotype seen, replicate 1 = abnormal cell clusters
CG4000 [DRSC21547]: phenotype seen, replicate 1 = sheet-like cell extensions
Crg-1 [DRSC22882]: phenotype seen, replicate 1 = axon bundles split apart
CG14143 [DRSC10146]: phenotype seen, replicate 1 = too many neurite branches; phenotype seen, replicate 2 = beaded; swollen axons
mip130 [DRSC18575]: phenotype seen, replicate 1 = abnormal cell clusters
CG30096 [DRSC21744]: phenotype seen, replicate 1 = fewer cells
CG34404 [DRSC15335]: phenotype seen, replicate 1 = reduced axon outgrowth
CG4962 [DRSC10464]: phenotype seen, replicate 1 = too many neurite branches
CG13337 [DRSC06371]: phenotype seen, replicate 1 = axon bundles split apart
CG10311 [DRSC14228]: phenotype seen, replicate 1 = abnormal cell clusters
CG12824 [DRSC06173]: phenotype seen, replicate 1 = too many neurite branches
CG4998 [DRSC10466]: phenotype seen, replicate 1 = reduced axon outgrowth
CG13766 [DRSC02271]: phenotype seen, replicate 1 = abnormal cell clusters
CG10553 [DRSC14254]: phenotype seen, replicate 1 = reduced axon outgrowth
CG3546 [DRSC18308]: phenotype seen, replicate 1 = axon bundles split apart
CG12011 [DRSC08219]: phenotype seen, replicate 1 = reduced axon outgrowth
AQP [DRSC06122]: phenotype seen, replicate 1 = abnormal cell clusters
CG13488 [DRSC04133]: phenotype seen, replicate 1 = too many neurite branches
Naa15-16 [DRSC22846]: phenotype seen, replicate 1 = weaker green signal
CG31259 [DRSC14366]: phenotype seen, replicate 1 = abnormal cell clusters
Naa30B [DRSC08245]: phenotype seen, replicate 1 = beaded; swollen axons
Sox21b [DRSC22788]: phenotype seen, replicate 1 = reduced axon outgrowth
bun [DRSC03500]: phenotype seen, replicate 1 = axon bundles split apart
SmF [DRSC07397]: phenotype seen, replicate 1 = abnormal cell clusters
CG10347 [DRSC19352]: phenotype seen, replicate 1 = abnormal cell clusters
CG30412 [DRSC04564]: phenotype seen, replicate 1 = too many neurite branches
CG14459 [DRSC11719]: phenotype seen, replicate 1 = too many neurite branches
Mgat4a [DRSC11070]: phenotype seen, replicate 1 = axon bundles split apart
CG8475 [DRSC03091]: phenotype seen, replicate 1 = sheet-like cell extensions
Nrg [DRSC18688]: phenotype seen, replicate 1 = cell fragments present
CG14200 [DRSC19555]: phenotype seen, replicate 1 = sheet-like cell extensions
Med [DRSC16737]: phenotype seen, replicate 1 = abnormal cell clusters
Hsp70Aa + Hsp70Bb + Hsp70Ba + 3 more [DRSC15380]: phenotype seen, replicate 1 = too many neurite branches
CG13223 [DRSC06344]: phenotype seen, replicate 1 = axon bundles split apart
CG2811 [DRSC04318]: phenotype seen, replicate 1 = weaker green signal
Mpcp2 [DRSC11226]: phenotype seen, replicate 1 = sheet-like cell extensions
RpS23 [DRSC07169]: phenotype seen, replicate 1 = axon bundles split apart
